For at least one compound, name, drawing or mass did not settle the structure.
What was measured:
Assay type in all cases: biochemical, rat
Settings in all cases: 0, 50, 500, 1000 PPB
[1] = tested on: pyruvate dehydrogenase complex (PDHC); test: PDHC enzyme activity in isolated cortical mitochondria
Experimental: (§1) In order to measure pyruvate dehydrogenase complex (PDHC) activity as well as mitochondrial Complex I activity, cortical mitochondria were isolated from adult SD rats using a ficoll gradient method. Methylselenoadenosine was tested at four concentration ranges (0, 50, 500 and 1000 PPB). All assays were done in triplicate with co-incubation of the individual compounds with mitochondria (60 μg mitochondrial protein/well) in 100 μl assay system using standard techniques in a 96-well fluorescence plate reader.

[2] = tested on: mitochondrial Complex I; test: Mitochondrial Complex I activity in isolated cortical mitochondria
Experimental: as §1

[3] = tested on: Complex IV; test: Complex IV enzyme activity in isolated cortical mitochondria

CSC[C@H]1O[C@@H](n2cnc3c(N)ncnc32)[C@H](O)[C@@H]1O [#31, methylthioadenosine, reference compound]
did not alter: PDHC activity (in words) [1] | Complex I activity (in words) [2] | Complex IV enzyme activity (in words) [3]

— US9833486B2, “Compositions comprising selenium and use of same for the treatment and prevention of disease or conditions associated with mitochondrial dysfunction” (ALLTECH, INC., priority 2013, dated 2017)
